Measurements: PubChem BioAssay AID540276 (National Center for Advancing Translational Sciences (NCATS), 2011)
Screen size: about 300,000 compounds; about 5,400 (1.8%) were called active. Inconclusive means that the source gave no clear call. Such entries were picked first, then a sample of the others. Calls come from the whole dose curve; tested in HEK293 cells. A potency beside an inconclusive call is a rough fit, not a confirmed value.
Potency is the fitted concentration of half-maximal effect.

Experiment: qHTS for inhibitors of binding or entry into cells for Marburg Virus
Settings: Marburg virus pseudotyped entry inhibition, cell reporter; series mostly up to 37.8 µM
For COc1cccc(CNC(=O)C2=C(C)C(=O)OC23CCC(C)CC3)c1 (stereo unspecified), the Potency was inconclusive: 0.206 µM [inhibitor, full curve, poor fit]. With CC1(C2CC2)NC(=O)NC1=O (stereo unspecified) the Potency was “inactive”. In the case of CN1CCC(N(C)CC(=O)Nc2cccc(Oc3ccccc3)c2)CC1, the Potency is reported as inconclusive: 29.1 µM [inhibitor, single point]. In the case of COc1ccc(C2C(C(=O)N3CCOCC3)CCC(=O)N2c2cc(OC)c(OC)c(OC)c2)cc1 (stereo unspecified), the Potency is reported as inconclusive: 25.1 µM [activator, partial curve, poor fit]. For O=C(CCc1ccccc1)NC1(Cc2ccccc2)CCN(CCc2cccs2)C1=O (stereo unspecified), the Potency was “inactive”. For CS(=O)(=O)c1ccccc1C(=O)Nc1nc2ccccc2[nH]1, the Potency was “inactive”. In the case of CC(C)(C)N(NC(=O)c1ccccc1)C(=O)c1cccc(C(=O)N(NC(=O)c2ccccc2)C(C)(C)C)c1, the Potency is reported as inconclusive: 12.6 µM [inhibitor, partial curve, poor fit]. In the case of C/C(CC(=O)Nc1c(C)cc(C)cc1C)=N\NC(=O)OC(C)(C)C, the Potency is reported as “inactive”. In the case of CCOc1cc(CNCCN2CCOCC2)ccc1OCc1ccccc1Cl, the Potency is reported as inconclusive: 11.2 µM [inhibitor, partial curve, poor fit]. With CC(C)n1cc(CN2CCCC(C(=O)Nc3cccc(-c4cc5ccccc5[nH]4)c3)C2)cn1 (stereo unspecified) the Potency was inconclusive: 12.6 µM [inhibitor, partial curve, poor fit]. With CCS(=O)(=O)N1CCCC(C(=O)c2ccc(OC)cc2C)C1 (stereo unspecified) the Potency was “inactive”. In the case of CN(C)CCn1c(NC(=O)c2ccc(Cl)cc2)nc2ccccc21, the Potency is reported as “inactive”. In the case of CC(C)c1ccc(C(=O)Nc2ccc(N3CCOCC3)cc2)cc1, the Potency is reported as inconclusive: 5.62 µM [activator, single point]. With COc1ccc(CCC(=O)Nc2cccc(S(=O)(=O)N3CCOCC3)c2)cc1OC the Potency was inconclusive: 12.6 µM [inhibitor, single point]. In the case of O=C(Cn1nc(-c2ccccc2)ccc1=O)Nc1ccc(N2CCN(C(=O)c3cccs3)CC2)cc1, the Potency is reported as inconclusive: 35.5 µM [inhibitor, single point]. For O=c1oc2ccccc2c(Nc2ccc3ncccc3c2)c1[N+](=O)[O-], the Potency was inconclusive: 35.5 µM [inhibitor, single point]. For CSCCC(NS(=O)(=O)c1ccc2[nH]c(=O)c(=O)[nH]c2c1)C(=O)O (stereo unspecified), the Potency was “inactive”. In the case of CCC(C(=O)NCC1CCCO1)N(Cc1ccccc1)C(=O)CNS(=O)(=O)c1ccccc1 (stereo unspecified), the Potency is reported as “inactive”. In the case of COc1cccc(/C=N/Nc2cc(N3CCOCC3)ncn2)c1O, the Potency is reported as inconclusive: 7.08 µM [inhibitor, partial curve, poor fit]. For COc1cc2cc3c(N)c(C(=O)NCc4ccco4)sc3nc2cc1OC, the Potency was inconclusive: 6.31 µM [activator, single point]. With CC(=O)c1cccc(NC(=O)C(OC(=O)c2cccc(S(=O)(=O)N(C)c3ccccc3)c2)c2ccccc2)c1 (stereo unspecified) the Potency was inconclusive: 35.5 µM [inhibitor, single point]. With CCc1ccc(CCC(=O)Nc2ccccc2C(=O)O)o1 the Potency was inconclusive: 29.1 µM [inhibitor, single point]. In the case of O=c1oc(Cl)c(Cl)c2ccccc12, the Potency is reported as inconclusive: 5.01 µM [inhibitor, partial curve, poor fit]. With Cc1ccc(N2CC(=O)Nc3c(oc4nc(-c5ccccc5)cc(C)c34)C2=O)cc1 the Potency was “inactive”. In the case of [O-]/C(=C(\C(=S)NCCN1CCOCC1)[n+]1ccccc1)c1ccc(Cl)s1, the Potency is reported as “inactive”. For O=C(Oc1c(CN2CCOCC2)cc(Cl)c2cccnc12)c1ccccc1Cl, the Potency was inconclusive: 7.94 µM [inhibitor, partial curve, poor fit]. In the case of CC(=O)c1cccc(NC(=O)N2CCCC2C(=O)Nc2cccc(C)c2C)c1 (stereo unspecified), the Potency is reported as “inactive”. With C=C(C)CCCN1C=C(C(C)=O)C(c2ccccc2)NC1=O (stereo unspecified) the Potency was “inactive”. With Cc1cccn2c(=O)c3cc(C(=O)NCc4ccco4)c(=N)n(C4CCCC4)c3nc12 the Potency was inconclusive: 20.6 µM [inhibitor, single point]. In the case of O=C(COc1ccc2ccccc2c1)NNC(=O)Cc1ccccc1, the Potency is reported as inconclusive: 3.55 µM [activator, single point]. For CCOC(=O)c1cnc2c(OC)cccc2c1N1CCN(c2ccccc2F)CC1, the Potency was inconclusive: 6.31 µM [inhibitor, partial curve, poor fit]. With O=C(Nc1ccccn1)c1ccc(S(=O)(=O)N2CCCCC2)cc1 the Potency was inconclusive: 2 µM [activator, partial curve, poor fit]. In the case of Cn1ccnc1SCC(=O)Nc1ccc2nc(SCC(=O)NC3CC3)sc2c1, the Potency is reported as inconclusive: 1 µM [activator, full curve, poor fit]. In the case of COc1ccc(CCNC(=O)CCCCn2c(=O)c3ccccc3n(Cc3cccc(C)c3)c2=O)cc1OC, the Potency is reported as inconclusive: 2 µM [activator, partial curve, poor fit]. In the case of COc1ccc(C(=O)N2CCCCCC2)cc1OC1CCN(C(C)C)CC1, the Potency is reported as “inactive”. For COc1ccc(NC(=S)Nc2cccc(C)n2)cc1, the Potency was inconclusive: 12.6 µM [activator, partial curve, poor fit]. With CC(=O)N1CCN(CCN=CC2=C(O)CC(c3ccco3)CC2=O)CC1 (stereo unspecified) the Potency was inconclusive: 16.4 µM [activator, single point]. In the case of CCOC(=O)c1sc(NC(=O)C2=COCCO2)c(C#N)c1C, the Potency is reported as inconclusive: 6.31 µM [inhibitor, single point]. For Cc1cccc(C)c1NC(=S)N(Cc1ccccc1)Cc1cccnc1, the Potency was “inactive”. With O=[N+]([O-])c1cccc2ccc(/C=C/c3ccc(C(F)(F)F)cc3)nc12 the Potency was inconclusive: 1.26 µM [inhibitor, single point]. With CC(NC(=O)c1cccc(Cn2cc([N+](=O)[O-])cn2)c1)c1ccc(C(C)(C)C)cc1 (stereo unspecified) the Potency was inconclusive: 10.3 µM [inhibitor, partial curve]. For CN(C)c1nc(NCc2ccccc2)nc(SCC(=O)Nc2ccccc2Cl)n1, the Potency was inconclusive: 11.2 µM [inhibitor, partial curve, poor fit]. With COC(=O)C1=C(C)NC(=O)/C1=C\c1cc(C)n(-c2ccccc2)c1C the Potency was active: 7.94 µM. In the case of O=C(CN(Cc1ccco1)C(=O)c1cc(=O)[nH]c2ccccc12)Nc1ccccc1Br, the Potency is reported as “inactive”. For C/C(CC(=O)NC1CCCC1)=N\NC(=O)Cc1csc(N)n1, the Potency was inconclusive: 1.12 µM [activator, partial curve, poor fit]. With COC(=O)c1[nH]c2cc(OC)c(OC)cc2c1NC(=O)c1cccc(OC)c1 the Potency was inconclusive: 0.112 µM [inhibitor, full curve, poor fit]. In the case of COCc1cc(=O)[nH]c(Nc2nc3ccccc3o2)n1, the Potency is reported as inconclusive: 11.2 µM [inhibitor, partial curve, poor fit]. In the case of CCOc1cccc2sc(=NC(=O)c3ccc(S(=O)(=O)N4CCOCC4)cc3)n(C)c12, the Potency is reported as inconclusive: 29.1 µM [inhibitor, single point]. With O=C(NCCCN1CCN(c2ccc(F)cc2)CC1)c1cccc(N2CCCC2=O)c1 the Potency was “inactive”. In the case of CCC(=O)NC1(C(F)(F)F)C(=O)Nc2c1c(=O)[nH]c(=O)n2CC(C)C (stereo unspecified), the Potency is reported as “inactive”. For Fc1ccc(Cn2ccc(-c3cnc(-c4ccccc4)s3)n2)cc1, the Potency was inconclusive: 35.5 µM [inhibitor, partial curve, poor fit]. In the case of CCc1ccc(OCC(=O)Nc2c(C(=O)c3ccc(Br)cc3)oc3ccccc23)cc1, the Potency is reported as “inactive”. For O=C(Cn1c(C(F)(F)F)nc2ccccc21)Nc1ccccc1C(=O)O, the Potency was inconclusive: 8.91 µM [inhibitor, partial curve, poor fit]. For Cc1ccc(/C=N/NC(=O)c2cc(-c3ccc(C)o3)[nH]n2)cc1, the Potency was inconclusive: 18.3 µM [inhibitor, partial curve, poor fit]. For CC(=O)CCc1ccc(OCC(O)CNC2CCCc3ccccc32)cc1 (stereo unspecified), the Potency was inconclusive: 12.6 µM [inhibitor, single point]. For COc1cccc2c1OCC(C(=O)O)C2 (stereo unspecified), the Potency was inconclusive: 5.01 µM [inhibitor, partial curve, poor fit]. In the case of CCOc1cc(N2CCOCC2)c(OCC)cc1NC(=O)CSc1nccc(C)n1, the Potency is reported as inconclusive: 11.2 µM [inhibitor, partial curve]. For Cc1ccc2c(c1)C(c1ccncc1)=NNC(c1ccc(C(C)C)cc1)=N2, the Potency was “inactive”. For Oc1ccccc1Nc1nc(NCc2ccccc2)c2ccccc2n1, the Potency was inconclusive: 35.5 µM [inhibitor, single point]. For CC(C)c1ccc(CC(C)C2C3=C(CCCC3=O)OC3=C2C(=O)CCC3)cc1 (stereo unspecified), the Potency was inconclusive: 35.5 µM [inhibitor, partial curve, poor fit]. In the case of CN1CC(C(=O)c2ccccc2)C(C(=O)c2ccccc2)C1 (stereo unspecified), the Potency is reported as “inactive”. In the case of Cc1cccc(C)c1NC(=O)N1CCN(c2nc3ccccc3s2)CC1, the Potency is reported as inconclusive: 1.16 µM [inhibitor, full curve, poor fit]. For O=C(NCc1cccnc1)c1cccc(C(F)(F)F)c1, the Potency was inconclusive: 32.6 µM [inhibitor, single point]. With CN(c1ccc(OCC(=O)N2CCN(c3ccc(F)cc3)CC2)cc1)S(=O)(=O)c1cccs1 the Potency was active: 8.91 µM. For N#Cc1c2ccc(O)cc2n2ccccc12, the Potency was inconclusive: 4.47 µM [inhibitor, full curve, poor fit]. In the case of COC(=O)c1ccc(CN(c2ccc(C)cc2)S(=O)(=O)c2ccc3c(c2)OCCO3)o1, the Potency is reported as inconclusive: 0.708 µM [activator, full curve, poor fit].
